Results taken from the supplement of paper PMC12067093, “Discovery and optimisation of a covalent ligand for TRIM25 and its application to targeted protein ubiquitination” (Chemical Science, 2025).
The other results are listed elsewhere or left out.

By UniProt entry, the sequences of proteins in these tests, tags left out. Where a name states a change or a piece, a line headed by the entry shows the natural chain unless it says otherwise.
UniProt A2RUS2: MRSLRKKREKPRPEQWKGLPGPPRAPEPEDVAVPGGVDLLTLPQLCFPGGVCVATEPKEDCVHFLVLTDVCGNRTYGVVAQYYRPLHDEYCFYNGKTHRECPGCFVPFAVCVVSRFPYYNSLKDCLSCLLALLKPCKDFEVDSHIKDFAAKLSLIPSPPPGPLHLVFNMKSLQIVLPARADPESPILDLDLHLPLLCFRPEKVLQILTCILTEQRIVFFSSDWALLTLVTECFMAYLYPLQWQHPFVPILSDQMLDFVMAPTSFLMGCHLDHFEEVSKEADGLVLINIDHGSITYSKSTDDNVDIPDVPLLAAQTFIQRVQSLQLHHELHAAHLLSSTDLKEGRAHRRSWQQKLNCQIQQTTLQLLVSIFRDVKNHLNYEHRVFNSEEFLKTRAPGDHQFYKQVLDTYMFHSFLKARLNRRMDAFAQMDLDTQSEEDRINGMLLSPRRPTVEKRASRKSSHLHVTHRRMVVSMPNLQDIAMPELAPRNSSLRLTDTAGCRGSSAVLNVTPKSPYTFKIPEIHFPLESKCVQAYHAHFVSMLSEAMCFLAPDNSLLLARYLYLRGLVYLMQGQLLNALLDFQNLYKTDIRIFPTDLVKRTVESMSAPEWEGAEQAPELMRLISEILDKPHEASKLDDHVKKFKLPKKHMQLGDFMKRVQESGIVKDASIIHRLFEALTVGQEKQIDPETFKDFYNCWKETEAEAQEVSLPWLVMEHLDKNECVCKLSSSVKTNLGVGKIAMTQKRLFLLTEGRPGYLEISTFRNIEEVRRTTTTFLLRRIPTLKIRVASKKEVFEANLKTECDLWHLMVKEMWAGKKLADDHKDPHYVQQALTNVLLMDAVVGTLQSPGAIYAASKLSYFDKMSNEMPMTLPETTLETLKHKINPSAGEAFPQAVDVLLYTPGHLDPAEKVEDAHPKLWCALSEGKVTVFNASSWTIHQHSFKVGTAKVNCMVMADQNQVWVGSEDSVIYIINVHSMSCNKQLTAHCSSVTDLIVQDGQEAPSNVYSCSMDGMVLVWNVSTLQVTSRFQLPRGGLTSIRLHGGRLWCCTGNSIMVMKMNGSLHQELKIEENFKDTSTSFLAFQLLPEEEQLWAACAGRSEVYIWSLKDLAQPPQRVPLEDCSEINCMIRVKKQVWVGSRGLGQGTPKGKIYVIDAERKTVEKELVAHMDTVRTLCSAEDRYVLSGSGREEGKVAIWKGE
UniProt O15523: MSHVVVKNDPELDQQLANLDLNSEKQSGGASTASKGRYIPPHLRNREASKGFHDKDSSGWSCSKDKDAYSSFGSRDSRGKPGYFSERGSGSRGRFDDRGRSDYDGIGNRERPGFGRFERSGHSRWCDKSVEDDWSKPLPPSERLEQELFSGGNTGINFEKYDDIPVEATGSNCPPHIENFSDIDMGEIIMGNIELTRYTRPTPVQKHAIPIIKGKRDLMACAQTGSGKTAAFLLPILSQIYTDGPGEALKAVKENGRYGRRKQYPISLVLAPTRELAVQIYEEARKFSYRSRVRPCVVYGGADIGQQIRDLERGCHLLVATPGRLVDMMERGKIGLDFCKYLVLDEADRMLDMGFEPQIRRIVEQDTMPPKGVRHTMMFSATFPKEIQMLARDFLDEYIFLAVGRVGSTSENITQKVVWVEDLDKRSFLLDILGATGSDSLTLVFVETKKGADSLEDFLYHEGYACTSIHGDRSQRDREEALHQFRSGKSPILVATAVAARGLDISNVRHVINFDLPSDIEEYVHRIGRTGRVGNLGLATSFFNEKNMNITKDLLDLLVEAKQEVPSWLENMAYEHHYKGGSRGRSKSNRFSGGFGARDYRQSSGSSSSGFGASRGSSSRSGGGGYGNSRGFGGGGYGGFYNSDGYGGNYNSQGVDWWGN
UniProt Q5TDH0: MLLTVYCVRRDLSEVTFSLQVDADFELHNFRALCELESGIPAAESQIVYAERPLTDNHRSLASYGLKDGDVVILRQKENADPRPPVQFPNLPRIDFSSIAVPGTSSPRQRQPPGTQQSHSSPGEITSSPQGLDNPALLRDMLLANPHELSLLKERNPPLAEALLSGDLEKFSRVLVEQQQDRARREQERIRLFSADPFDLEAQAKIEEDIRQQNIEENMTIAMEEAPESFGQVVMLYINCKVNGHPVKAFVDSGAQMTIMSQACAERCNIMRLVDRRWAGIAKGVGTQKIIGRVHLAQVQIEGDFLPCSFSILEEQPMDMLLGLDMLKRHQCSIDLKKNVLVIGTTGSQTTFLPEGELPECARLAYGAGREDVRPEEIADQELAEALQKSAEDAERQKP
UniProt P39656: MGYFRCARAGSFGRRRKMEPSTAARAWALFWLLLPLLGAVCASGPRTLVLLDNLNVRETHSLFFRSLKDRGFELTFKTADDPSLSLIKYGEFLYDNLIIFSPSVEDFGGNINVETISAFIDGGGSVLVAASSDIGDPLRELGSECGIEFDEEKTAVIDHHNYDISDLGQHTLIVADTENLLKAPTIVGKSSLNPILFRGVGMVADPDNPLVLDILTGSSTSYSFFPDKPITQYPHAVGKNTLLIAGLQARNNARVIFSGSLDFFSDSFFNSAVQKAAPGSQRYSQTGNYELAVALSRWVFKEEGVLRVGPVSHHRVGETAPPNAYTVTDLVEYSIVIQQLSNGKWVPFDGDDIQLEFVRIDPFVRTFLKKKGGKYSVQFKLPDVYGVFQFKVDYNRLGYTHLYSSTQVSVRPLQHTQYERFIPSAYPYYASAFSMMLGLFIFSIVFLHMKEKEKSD
UniProt Q9NR30: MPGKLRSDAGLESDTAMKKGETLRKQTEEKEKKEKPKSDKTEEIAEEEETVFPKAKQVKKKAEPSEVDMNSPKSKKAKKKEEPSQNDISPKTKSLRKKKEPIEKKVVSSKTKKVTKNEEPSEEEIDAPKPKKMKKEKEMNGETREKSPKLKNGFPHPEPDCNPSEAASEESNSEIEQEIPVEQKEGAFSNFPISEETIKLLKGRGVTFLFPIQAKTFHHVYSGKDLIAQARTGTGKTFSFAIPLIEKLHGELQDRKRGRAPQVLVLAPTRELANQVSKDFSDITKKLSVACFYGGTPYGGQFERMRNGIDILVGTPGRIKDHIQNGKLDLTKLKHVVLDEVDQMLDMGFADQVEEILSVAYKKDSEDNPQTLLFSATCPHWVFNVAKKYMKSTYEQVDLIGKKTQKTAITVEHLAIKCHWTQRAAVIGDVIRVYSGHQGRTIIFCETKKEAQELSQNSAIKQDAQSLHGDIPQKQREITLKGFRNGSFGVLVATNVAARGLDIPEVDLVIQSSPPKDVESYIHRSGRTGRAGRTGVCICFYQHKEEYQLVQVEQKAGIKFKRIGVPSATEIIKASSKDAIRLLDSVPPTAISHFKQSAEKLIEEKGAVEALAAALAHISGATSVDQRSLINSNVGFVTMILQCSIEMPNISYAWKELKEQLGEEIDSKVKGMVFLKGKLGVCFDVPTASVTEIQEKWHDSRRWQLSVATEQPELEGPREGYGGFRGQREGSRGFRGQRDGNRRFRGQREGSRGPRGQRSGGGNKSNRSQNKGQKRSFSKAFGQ
UniProt Q86XP3: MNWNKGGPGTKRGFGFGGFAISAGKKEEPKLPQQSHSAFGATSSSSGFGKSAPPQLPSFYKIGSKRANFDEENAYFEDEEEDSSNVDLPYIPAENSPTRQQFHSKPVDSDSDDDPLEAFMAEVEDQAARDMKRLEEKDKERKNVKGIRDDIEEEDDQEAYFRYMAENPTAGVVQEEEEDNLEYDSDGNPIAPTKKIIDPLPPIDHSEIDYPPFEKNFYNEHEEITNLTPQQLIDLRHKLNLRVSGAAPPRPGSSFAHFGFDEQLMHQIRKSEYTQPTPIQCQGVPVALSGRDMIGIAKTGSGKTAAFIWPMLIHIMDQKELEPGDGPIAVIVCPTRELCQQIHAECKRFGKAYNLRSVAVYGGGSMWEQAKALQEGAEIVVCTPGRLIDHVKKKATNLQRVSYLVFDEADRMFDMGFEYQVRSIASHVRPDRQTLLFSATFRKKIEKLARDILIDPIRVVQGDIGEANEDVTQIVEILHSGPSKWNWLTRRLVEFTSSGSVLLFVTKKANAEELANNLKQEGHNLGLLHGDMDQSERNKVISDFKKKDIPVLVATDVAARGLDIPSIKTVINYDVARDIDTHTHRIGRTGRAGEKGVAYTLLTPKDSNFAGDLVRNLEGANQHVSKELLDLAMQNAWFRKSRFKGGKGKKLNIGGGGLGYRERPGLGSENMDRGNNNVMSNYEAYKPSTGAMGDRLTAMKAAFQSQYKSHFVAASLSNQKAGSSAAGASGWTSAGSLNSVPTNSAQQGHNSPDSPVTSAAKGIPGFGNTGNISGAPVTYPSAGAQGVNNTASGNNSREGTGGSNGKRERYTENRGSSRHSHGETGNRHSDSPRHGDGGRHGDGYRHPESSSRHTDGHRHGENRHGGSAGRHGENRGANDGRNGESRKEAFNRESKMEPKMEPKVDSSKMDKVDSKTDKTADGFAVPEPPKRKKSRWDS
UniProt Q9BQ39: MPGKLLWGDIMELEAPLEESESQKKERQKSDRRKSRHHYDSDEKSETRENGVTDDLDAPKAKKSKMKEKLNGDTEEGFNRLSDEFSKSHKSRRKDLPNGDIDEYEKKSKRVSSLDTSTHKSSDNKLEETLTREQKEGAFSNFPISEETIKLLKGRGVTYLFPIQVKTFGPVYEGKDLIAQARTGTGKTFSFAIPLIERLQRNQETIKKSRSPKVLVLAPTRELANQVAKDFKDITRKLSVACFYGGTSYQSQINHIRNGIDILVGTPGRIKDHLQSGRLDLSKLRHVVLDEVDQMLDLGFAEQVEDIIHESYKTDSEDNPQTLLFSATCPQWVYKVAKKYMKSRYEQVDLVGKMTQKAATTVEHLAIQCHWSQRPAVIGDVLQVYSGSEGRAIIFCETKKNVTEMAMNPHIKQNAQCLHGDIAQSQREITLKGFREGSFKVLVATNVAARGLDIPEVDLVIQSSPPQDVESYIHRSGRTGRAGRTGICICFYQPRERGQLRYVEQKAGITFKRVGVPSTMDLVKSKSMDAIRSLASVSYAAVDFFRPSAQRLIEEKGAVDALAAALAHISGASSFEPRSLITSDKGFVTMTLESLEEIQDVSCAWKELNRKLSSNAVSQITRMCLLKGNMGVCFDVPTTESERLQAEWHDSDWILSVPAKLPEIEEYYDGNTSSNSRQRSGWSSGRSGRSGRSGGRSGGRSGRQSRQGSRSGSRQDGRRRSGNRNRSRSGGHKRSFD
UniProt P26196: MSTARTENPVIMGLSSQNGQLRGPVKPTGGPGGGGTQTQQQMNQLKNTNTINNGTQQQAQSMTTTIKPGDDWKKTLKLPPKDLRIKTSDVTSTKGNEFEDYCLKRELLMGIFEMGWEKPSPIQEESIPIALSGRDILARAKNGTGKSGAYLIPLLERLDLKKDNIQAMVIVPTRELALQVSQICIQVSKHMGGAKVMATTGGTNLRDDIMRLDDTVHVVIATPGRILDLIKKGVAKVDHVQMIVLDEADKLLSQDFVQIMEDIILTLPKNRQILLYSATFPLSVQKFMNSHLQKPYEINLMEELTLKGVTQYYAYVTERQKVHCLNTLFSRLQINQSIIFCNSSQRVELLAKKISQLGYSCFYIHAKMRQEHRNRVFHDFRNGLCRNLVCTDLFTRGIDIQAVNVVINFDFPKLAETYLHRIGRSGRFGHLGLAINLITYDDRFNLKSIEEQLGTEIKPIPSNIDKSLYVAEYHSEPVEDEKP
UniProt Q9UJV9: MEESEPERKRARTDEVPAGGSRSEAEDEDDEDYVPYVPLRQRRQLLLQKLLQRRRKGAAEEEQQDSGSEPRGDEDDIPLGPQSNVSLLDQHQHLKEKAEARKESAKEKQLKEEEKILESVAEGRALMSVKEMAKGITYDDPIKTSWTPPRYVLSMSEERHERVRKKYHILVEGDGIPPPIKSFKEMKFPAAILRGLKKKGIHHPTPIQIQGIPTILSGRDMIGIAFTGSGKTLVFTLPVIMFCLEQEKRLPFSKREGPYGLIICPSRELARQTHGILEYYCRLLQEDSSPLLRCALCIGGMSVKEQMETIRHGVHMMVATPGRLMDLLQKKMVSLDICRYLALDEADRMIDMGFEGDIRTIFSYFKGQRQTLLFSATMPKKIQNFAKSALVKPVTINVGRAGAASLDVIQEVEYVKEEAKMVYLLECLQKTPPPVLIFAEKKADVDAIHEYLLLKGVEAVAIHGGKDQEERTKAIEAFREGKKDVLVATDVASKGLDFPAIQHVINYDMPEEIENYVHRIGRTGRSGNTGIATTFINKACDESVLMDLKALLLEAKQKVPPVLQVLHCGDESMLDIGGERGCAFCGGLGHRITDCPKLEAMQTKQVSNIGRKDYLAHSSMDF

Compound: CC1Cc2ccccc2N1C(=O)C1CCCN(C1)C(=O)CCl (mixture of isomers) [TRIM25 ligand 11 (diastereomer mixture)]
Assay: probe-labelled cysteine peptide fold change vs DMSO (competition) (log2 fold change); higher = less target engagement (more negative = stronger competition)
Settings: THP-1, incubation time: 4 h
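Note: competitive chemoproteomic profiling in live THP-1 cells with an iodoacetamide desthiobiotin (IA-DTB) probe, comparing probe-labelled peptide intensities in compound-treated cells against DMSO-treated controls.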

| Target | probe-labelled cysteine peptide fold change (10 µM) | probe-labelled cysteine peptide fold change (50 µM) |
| --- | --- | --- |
| DENND3_A2RUS2_91_TYGVVAQYYRPLHDEYCFYNGK (UniProt A2RUS2) | 0.0616 | -0.153 |
| DDX3Y_O15523_62_DSSGWSCSK (UniProt O15523) | -0.337 | -0.331 |
| DDI2_Q5TDH0_34_ALCELESGIPAAESQIVYAERPLTDNHR (UniProt Q5TDH0) | -0.201 | -0.101 |
| DENND4B_O75064_165_AAEGAGLHALGITDLCLVLPSK (UniProt O75064) | -0.0265 | 0.104 |
| DDX17_Q92841_584_TTSSANNPNLMYQDECDR (UniProt Q92841) | 0.126 | 0.000422 |
| DDOST_P39656_145_ELGSECGIEFDEEK (UniProt P39656) | 0.0142 | -0.00767 |
| DENND3_A2RUS2_197_ADPESPILDLDLHLPLLCFRPEK (UniProt A2RUS2) | 0.0355 | 0.188 |
| DDX21_Q9NR30_418_CHWTQR (UniProt Q9NR30) | 0.0562 | 0.19 |
| DDX42_Q86XP3_339+346_ELCQQIHAECK (UniProt Q86XP3) | -0.0625 | -0.045 |
| DDX1_Q92499_519_TKIDCDNLEQYFIQQGGGPDK (UniProt Q92499) | -0.0569 | -0.09 |
| DDX50_Q9BQ39_490_TGICICFYQPR (UniProt Q9BQ39) | -0.136 | 0.0456 |
| DENND4C_Q5VZ89_955_MQTEEVCDASAIVAK (UniProt Q5VZ89) | 0.0406 | -0.139 |
| DDX6_P26196_361_ISQLGYSCFYIHAK (UniProt P26196) | 0.0377 | 0.268 |
| DDX41_Q9UJV9_427_MVYLLECLQK (UniProt Q9UJV9) | 0.0639 | 0.0704 |

2 entries picked at random from the list so far:

| Target | probe-labelled cysteine peptide fold change (10 µM) | probe-labelled cysteine peptide fold change (50 µM) |
| --- | --- | --- |
| DDI2_Q5TDH0_34_ALCELESGIPAAESQIVYAERPLTDNHR (UniProt Q5TDH0) | -0.201 | -0.101 |
| DDX3Y_O15523_62_DSSGWSCSK (UniProt O15523) | -0.337 | -0.331 |
